The text below walks through data of PubChem BioAssay AID2685 (National Center for Advancing Translational Sciences (NCATS), 2010).

As a reminder, the AC50 is the concentration giving half of the maximal activity seen. Low values mean activity at low concentration, high ones activity only at high concentration.

A short description of this test: qHTS Assay for Lipid Storage Modulators in Drosophila S3 Cells.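 For cell number change: cells counted by Cell Tracker Red CMTPX staining in the red channel.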 The conditions noted are these: BODIPY lipid droplet fluorescence, 18-24 h; for cell number change: measured here: cell count max response, cells fed with added oleic acid. Put shortly:
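Laser-scanning cytometry quantifies lipid droplet accumulation (500–530 nm total intensity; droplet/cell object ratio) in oleic acid-fed (400 uM added) Drosophila S3 cells treated with a concentration series. 20 uM Triacsin C defined 100% inhibition.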
(Quantitative high-throughput screening tests each substance at several concentrations.)

Where [1] appears, read: measured here: cell number channel AC50, cells fed with added oleic acid.
Setting [2] is: measured here: lipid fluorescence (Fed channel) AC50, cells fed with added oleic acid.

Each structure is given as a SMILES string. This is one part of the list. Shown are side measurements of this screen, not its main read-out; they come without a call. The list favours compounds with an active or inconclusive main result. Potencies come from curve fits of mixed quality, noted in brackets.

As to `CC1=NN(C(=O)c2ccc(C)o2)C(O)(c2ccccc2)C1` (configuration not stated), the cell number change was -5.94%. Further, under setting [1], the AC50 was 0.731 µM [rising, partial curve, poor fit]. Moreover, under setting [2], the AC50 is 2.06 µM [rising, partial curve, poor fit]. On to `c1ccc(-c2csc3nnc(SCc4ccc5c(c4)OCO5)n23)cc1`, for which the AC50 was 0.116 µM [rising, full curve] under setting [1] and 0.164 µM [rising, full curve] under setting [2]. On to `O=C(CCC(=O)c1cccs1)NNC(=O)c1ccccc1O`, for which the cell number change stood at 34.3%. Besides, under setting [1], the AC50 is 32.6 µM [rising, single point].

Regarding `CN1C(=O)/C(=C/c2ccccc2OCc2ccccc2F)NC1=S`, the cell number change is -22.6%. Also, the AC50 under setting [2] was 1.16 µM [falling, full curve, poor fit]. For the compound `CCOC(=O)C1CCCN(C(=O)c2ccc(NC(=O)CC3SC(N4CCCC4)=NC3=O)cc2)C1` (configuration not stated), the cell number change was -18.1%. With `Cc1ccc(S(=O)(=O)N2CCN(c3ncnc4sccc34)CC2)cc1C`, the cell number change was -53.4%. Under setting [1], the concentration at half-maximal activity (AC50) was 8.2 µM [falling, partial curve]. Take `Cn1c(=O)n(C)c2cc(NS(=O)(=O)c3ccc(F)cc3)ccc21`: the cell number change was -31.5%. As to `COc1ccc(C2CC(=O)C3=C(C2)NC(C)=C(C#N)C3c2ccc(N(C)C)cc2)cc1` (configuration not stated), the cell number change was -71.1%. The AC50 under setting [1] was 4.11 µM [falling, full curve].

For `COc1ccc(C(=O)Nc2ccc(-c3ccc(C)o3)cc2)cc1S(=O)(=O)N1CCOCC1`, the cell number change was -13.6%. In the case of `CCO/C(C)=N/n1c2nc3ccccc3nc2c2c(=O)n(Cc3ccccc3Cl)c(C)nc21`, the cell number change is 2.24%. Further, the AC50 under setting [2] was 0.13 µM [rising, full curve, poor fit]. As for `COc1ccc(CCC(=O)OCC(=O)Nc2ccccc2OC(F)F)cc1OC`, the AC50 under setting [1] is 0.146 µM [falling, full curve, poor fit]. Turning to `COc1cccc(-n2c(SCC#N)nnc2-c2cnccn2)c1`, the cell number change is -15%. For `CCOc1ccc(NC(=S)N2CCN(S(=O)(=O)c3ccc(OC)cc3)CC2)cc1`, the cell number change turned out to be 13.8%. In addition, the AC50 under setting [2] is 14.6 µM [rising, partial curve, poor fit]. Regarding `N=C1C(c2ccccc2)=C(O)CN1c1cccc(S(=O)(=O)NCc2ccco2)c1`, the cell number change was -51.2%. Moreover, under setting [1], the AC50 is 3.26 µM [falling, full curve]. Further, the AC50 under setting [2] is 3.66 µM [falling, full curve]. With `O=C(Nc1ccc(NC(=O)c2ccco2)cc1)c1ccc2c(c1)OCCO2`, the concentration at half-maximal activity (AC50) under setting [2] was 29.1 µM [falling, partial curve, poor fit]. As for `Cc1nn(-c2ccccc2)c(N2CCCC2)c1/C=N/n1cnc2scc(-c3ccccc3)c2c1=O`, the cell number change came out at 30.4%. Also, under setting [1], the AC50 is 3.66 µM [rising, partial curve]. Further, under setting [2], the concentration at half-maximal activity (AC50) is 0.651 µM [rising, full curve, poor fit]. For the compound `O=C(NC1=NCCS1)c1cccs1`, the cell number change worked out at 2.95%. For the same compound, the AC50 under setting [2] was 0.731 µM [falling, single point]. In the case of `CCC(C)(C)n1nnnc1C(c1ccc(F)cc1)N1CCN(C(=O)c2ccco2)CC1` (configuration not stated), the cell number change turned out to be 14.2%. With `Cc1nn(Cc2ccccc2)c(C)c1NC(=O)CSc1nc(-c2ccccc2)nc2c1cnn2-c1ccccc1`, the cell number change was -13.4%. Under setting [2], the concentration at half-maximal activity (AC50) was 6.51 µM [rising, partial curve, poor fit]. Consider `COc1ccc(S(=O)(=O)N2CCCCCC2)cc1C(=O)NCc1ccc(C)cc1`, for which the cell number change worked out at 29.3%. Also, under setting [2], the AC50 is 18.4 µM [falling, partial curve, poor fit].

On to `O=C(O)c1ccc(Cl)c(NCc2ccncc2)c1`, for which the cell number change is -0.647%. The AC50 under setting [2] was 6.51 µM [rising, single point]. `O=C(NN1C(=O)c2ccccc2C1=O)c1ccc2c(c1)C(=O)N(CC1CCCO1)C2=O` (configuration not stated): the cell number change is -9.2%. The AC50 under setting [2] is 6.51 µM [falling, single point]. On to `COc1ccc(-c2nc(N)n(S(=O)(=O)c3ccc(C)cc3)n2)cc1`, for which the cell number change was determined as 0.851%.

Take `COc1ccc2cc(C(=O)Nc3ccc(F)cc3)sc(=O)c2c1OC`: the AC50 under setting [2] is 0.259 µM [falling, full curve]. As for `CC1CCC(CN2C(Nc3ccccc3)=NC[C@@H]2C)CC1` (some centres not stated), the cell number change came to 5.69%.

`COc1cc(NC(=O)c2ccc(CNc3c(N4CCOCC4)c(=O)c3=O)cc2)cc(OC)c1`: the cell number change came to 7.65%. Further, the concentration at half-maximal activity (AC50) under setting [2] was 29.1 µM [falling, single point]. For `CCN(CC(=O)Nc1ccc(NC(C)=O)cc1)C(=O)C1CCCN(C(=O)c2ccc(Cl)cc2)C1` (configuration not stated), the cell number change stood at 10.4%. Further, the AC50 under setting [2] is 4.11 µM [falling, single point]. In the case of `CCOC(=O)c1cnc(-c2ccccc2)nc1Oc1ccc(Cl)cc1`, under setting [2], the AC50 was 0.651 µM [rising, single point].

Turning to `CCN(CC)c1ccc(/C=N/NC(=O)C(O)(c2ccccc2)c2ccccc2)o1`, under setting [2], the AC50 is 0.164 µM [falling, full curve, poor fit]. On to `O=C(c1ccccc1F)c1cc2c(cc1[N+](=O)[O-])OCCO2`, for which the cell number change is -46%. Under setting [1], the AC50 is 32.6 µM [falling, single point]. For the compound `COc1ccc(CCCNC(=O)C2CCC(=O)N(CC3CCCCC3)C2)cc1` (configuration not stated), the cell number change stood at 10.1%. The AC50 under setting [2] is 0.0517 µM [rising, full curve, poor fit].

Consider `COCCCn1c(SCC(=O)Nc2cccc(C)n2)nnc1-c1ccco1`, for which the AC50 under setting [1] was 7.31 µM [falling, single point].

With `CCn1c(C)nc2cc(C(=O)N/N=C(\C)c3ccc(OC)cc3O)ccc21`, the cell number change is -24.9%. For the same compound, the AC50 under setting [2] was 1.46 µM [rising, full curve]. Turning to `O=C(O)CC1SC(=Nc2cccc(O)c2)NC1=O` (configuration not stated), the cell number change was -13.3%. In addition, under setting [2], the AC50 is 3.66 µM [falling, single point]. Turning to `Cc1ccc(S(=O)(=O)NC(=O)Nc2cc(C)ccc2F)cc1`, the cell number change was found to be 1.59%.

Regarding `COc1ccc(C)cc1S(=O)(=O)NCc1cccs1`, the cell number change is -10%. For the same compound, the AC50 under setting [2] is 0.082 µM [rising, single point]. As for `CCOC(=O)N/N=C1\CCS(=O)(=O)c2ccc(Cl)cc21`, the cell number change was 19.7%. In addition, the half-maximal activity concentration (AC50) under setting [1] was 2.91 µM [falling, single point]. Further, the AC50 under setting [2] was 3.66 µM [falling, single point]. For the compound `CC1CN(CC(=O)NCc2ccc(F)cc2)CC(C)O1` (configuration not stated), the cell number change is -5.71%. The AC50 under setting [2] is 6.51 µM [falling, partial curve].

On to `Cc1ccc(-c2noc(=O)n2CC(=O)Nc2ccc(S(=O)(=O)NC3CC3)cc2)cc1`, for which the cell number change turned out to be 1.5%. Take `CCCCCCCNC(=O)C1(CC2CC(c3ccc(Cl)cc3)=NO2)CCN(C(=O)C2CCCC2)CC1` (configuration not stated): the cell number change was determined as 33.7%. Turning to `COc1cc(NS(=O)(=O)c2ccc(NC(=O)CSC3=NCCS3)cc2)nc(OC)n1`, the cell number change is -11.1%. Besides, the AC50 under setting [2] was 0.13 µM [falling, full curve]. For the compound `Cc1ccc(S(=O)(=O)NCC2CCC(C(=O)N3CCN(C)CC3)CC2)cc1` (configuration not stated), the cell number change was 0.76%. Also, the AC50 under setting [2] is 25.9 µM [rising, single point].

As for `COc1ccc(OC)c(S(=O)(=O)N2CCCC(C(=O)NCc3ccccn3)C2)c1` (configuration not stated), the cell number change was -4.7%. In the case of `C=CCc1cccc2cc(C(=O)NC)c(=O)oc12`, the cell number change was found to be 9.47%. In addition, the concentration at half-maximal activity (AC50) under setting [2] is 0.517 µM [rising, full curve, poor fit]. As to `COc1cccc(CCN2C(=O)C(=O)N([C@@H](CNCc3ccccc3)Cc3ccccc3F)C[C@@H]2C(C)(C)C)c1`, the cell number change was -34.3%. Also, the AC50 under setting [1] was 0.731 µM [falling, full curve]. For the same compound, the AC50 under setting [2] is 0.731 µM [falling, full curve]. Regarding `C[n+]1ccc(C(=O)NCc2ccccc2)cc1`, the cell number change worked out at 9.89%. In addition, the AC50 under setting [2] was 20.6 µM [rising, single point]. As for `CN(C)c1ccc(C(=O)n2nnc3ccccc32)cc1`, the cell number change is -37.8%. Moreover, the AC50 under setting [1] is 16.4 µM [falling, single point]. Besides, under setting [2], the AC50 was 20.6 µM [falling, single point].

For the compound `CCCCCC(=O)NC(=S)Nc1ccc2oc(=O)ccc2c1`, the cell number change is 17.5%. The AC50 under setting [2] was 2.59 µM [falling, partial curve]. Regarding `C/C(CC(=O)Nc1ccc(F)cc1)=N\NC(=O)COc1ccccc1`, the cell number change was 31.4%. The half-maximal activity concentration (AC50) under setting [1] was 13 µM [rising, single point]. For `O=C1OC(c2ccccc2)=C/C1=C/c1cccs1`, the cell number change came out at 32.2%. Also, the AC50 under setting [1] was 9.2 µM [rising, single point]. Also, the AC50 under setting [2] was 11.6 µM [rising, partial curve, poor fit]. For `Cn1nc(-c2ccc(Cl)cc2)c2cc(C(=O)N3CCCC3)sc21`, the cell number change was 14.2%. The AC50 under setting [2] is 0.082 µM [rising, full curve]. Regarding `CCOC(=O)C1(CC2CC2)CCN(C(=O)c2cc(OC)nc3ccccc23)CC1`, the cell number change was -18.9%. In addition, the AC50 under setting [2] was 0.0231 µM [falling, full curve, poor fit].

On to `CC(C)OC(=O)CSc1nc(N)c(C#N)c(-c2cccs2)c1C#N`, for which the cell number change came to 1.09%. For the same compound, the AC50 under setting [1] was 0.184 µM [rising, full curve, poor fit]. Further, the AC50 under setting [2] is 6.51 µM [rising, partial curve]. On to `CC(=O)N1c2ccc(S(=O)(=O)NCCC(=O)NCCc3cccc(C)c3)cc2CC1C` (configuration not stated), for which the cell number change was -4.42%. In addition, the AC50 under setting [2] is 0.291 µM [rising, single point]. For the compound `COc1ccc(C2(CNC(=O)c3ccccc3)CCOCC2)cc1`, the cell number change is -37.6%. Also, the half-maximal activity concentration (AC50) under setting [1] was 9.2 µM [falling, partial curve].

As to `COc1ccc(C(=O)OCC(=O)c2ccc(S(=O)(=O)N3CCCCC3)cc2)c(OC)c1`, the cell number change stood at 150%. Moreover, the AC50 under setting [1] was 6.51 µM [falling, single point].

For the compound `Cc1ccccc1CS(=O)(=O)c1nnc([C@H](CC(C)C)NC(=O)OC(C)(C)C)o1`, the cell number change was -94.9%. For the same compound, under setting [1], the half-maximal activity concentration (AC50) is 16.4 µM [falling, partial curve, poor fit]. Besides, the AC50 under setting [2] was 18.4 µM [falling, partial curve]. Turning to `CCCN(CC(=O)Nc1cc(C)on1)CC(=O)Nc1ccccc1C`, the cell number change was determined as 10.3%.

In the case of `Cc1cccc(C(=O)NC(C(=O)Nc2cccc(S(=O)(=O)N3CCCC3)c2)C(C)C)c1` (configuration not stated), the cell number change turned out to be 11.2%. In addition, under setting [1], the half-maximal activity concentration (AC50) was 0.58 µM [falling, partial curve, poor fit]. Moreover, the AC50 under setting [2] was 0.58 µM [falling, partial curve, poor fit]. `CC(=O)c1c(N2CCOCC2)nc2ccc(Cl)cc2c1-c1ccccc1`: the cell number change is 15.2%. Further, under setting [1], the AC50 is 4.11 µM [rising, single point].
